Measurements published in paper PMC11087540.

Amino acid sequences for entries named in this document (tags omitted). A change or cut given only in a name is not applied to a line headed by its entry. Residues count along the entry.
UniProt P15306: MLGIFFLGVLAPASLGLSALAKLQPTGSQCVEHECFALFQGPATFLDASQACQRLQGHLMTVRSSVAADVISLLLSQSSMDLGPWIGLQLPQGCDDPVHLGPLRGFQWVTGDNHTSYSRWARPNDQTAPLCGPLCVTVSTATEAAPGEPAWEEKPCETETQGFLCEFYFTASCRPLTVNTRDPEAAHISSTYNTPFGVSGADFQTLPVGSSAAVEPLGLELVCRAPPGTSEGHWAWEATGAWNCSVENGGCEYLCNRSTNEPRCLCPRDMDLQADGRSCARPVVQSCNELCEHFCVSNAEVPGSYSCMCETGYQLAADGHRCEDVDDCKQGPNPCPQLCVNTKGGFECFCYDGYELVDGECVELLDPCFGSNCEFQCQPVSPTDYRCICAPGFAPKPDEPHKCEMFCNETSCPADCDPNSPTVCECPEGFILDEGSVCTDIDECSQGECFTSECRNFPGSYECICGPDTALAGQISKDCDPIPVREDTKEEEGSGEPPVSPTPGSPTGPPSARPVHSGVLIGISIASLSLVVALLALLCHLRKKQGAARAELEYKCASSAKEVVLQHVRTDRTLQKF
UniProt O54819, residues 29-306: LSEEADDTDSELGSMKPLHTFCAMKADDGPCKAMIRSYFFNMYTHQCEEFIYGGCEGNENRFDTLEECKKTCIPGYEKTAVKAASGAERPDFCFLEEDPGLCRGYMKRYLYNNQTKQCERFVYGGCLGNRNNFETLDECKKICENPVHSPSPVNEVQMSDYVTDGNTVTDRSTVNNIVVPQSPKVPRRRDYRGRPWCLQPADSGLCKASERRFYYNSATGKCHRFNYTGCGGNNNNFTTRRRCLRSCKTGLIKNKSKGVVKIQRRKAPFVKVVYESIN

Target: GST-tagged Thbd protein (UniProt P15306)
Assay: pull-down; GST-tagged Thbd on GSH-agarose in binding buffer (50 mM Tris/HCl, 150 mM NaCl, 1 mM EDTA, 0.5% NP40, 10% glycerol, pH 7.4); incubated with Flag-tagged TFPI from HEK293T at 4 °C for 2 h; washed 3 times, Western blot; only the target purified

Substance: Flag-tagged TFPI (tissue factor pathway inhibitor) (from UniProt O54819 29-306)
- binding: binds

No constants are given. Whether binding was seen depends on the method and setting. Binding seen in cells or lysates may run through a third protein. A result given as binding can be weak or reduced; the word gives no strength.
